For this assay, the system named is P388 leukemia ip, CD2F1 mice, survival T/C. As to the kind of experiment: NCI In Vivo Anticancer Drug Screen. Data for tumor model P388 Leukemia (intraperitoneal) in CD2F1 (CDF1) mice. Conditions: T/C endpoint: median survival time, higher T/C = longer survival.
Setting [1] is: dose: 50.0 mg/kg/injection, schedule: Q01DX005 (ip), vehicle: saline.
[2] abbreviates: dose: 100.0 mg/kg/injection, schedule: Q01DX005 (ip), vehicle: saline.
The mark [3] stands for this setting: dose: 200.0 mg/kg/injection, schedule: Q01DX005 (ip), vehicle: saline.
The mark [4] stands for this setting: dose: 50.0 mg/kg/injection, schedule: Q01DX009 (ip), vehicle: Klucel (hydroxypropylcellulose) (HPC).
The mark [5] stands for this setting: dose: 100.0 mg/kg/injection, schedule: Q01DX009 (ip), vehicle: Klucel (hydroxypropylcellulose) (HPC).
Setting [6] is: dose: 200.0 mg/kg/injection, schedule: Q01DX009 (ip), vehicle: Klucel (hydroxypropylcellulose) (HPC).
[7] abbreviates: dose: 50.0 mg/kg/injection, schedule: Q01DX009 (ip), vehicle: saline with Tween-80.
Setting [8] is: dose: 50.0 mg/kg/injection, schedule: Q01DX009 (ip), vehicle: saline.
[9] abbreviates: dose: 100.0 mg/kg/injection, schedule: Q01DX009 (ip), vehicle: saline with Tween-80.
[10] abbreviates: dose: 100.0 mg/kg/injection, schedule: Q01DX009 (ip), vehicle: saline.
The mark [11] stands for this setting: dose: 100.0 mg/kg/injection, schedule: Q01DX005 (ip), vehicle: saline with Tween-80.
Setting [12] is: dose: 200.0 mg/kg/injection, schedule: Q01DX009 (ip), vehicle: saline with Tween-80.
Setting [13] is: dose: 200.0 mg/kg/injection, schedule: Q01DX005 (ip), vehicle: saline with Tween-80.
Where [14] appears, read: dose: 200.0 mg/kg/injection, schedule: Q01DX009 (ip), vehicle: saline.

Molecules are shown by their SMILES. The list does not hold the whole screen: it is rich in T/C values a quarter to a half above the control, in often repeated tests (any T/C) and in doses without a T/C. Other doses and runs of a compound stand elsewhere. T/C gives the treated animals as a percentage of the vehicle group. Some doses have a count of surviving animals in place of a T/C: the source holds a T/C of zero for them, seemingly a mark for toxic or unscored doses. Some survivor counts are full or nearly so, which does not show that the dose was tolerated: the source hardly ever lists a survival T/C far under the control, and the zero likely stands for such cases as well. Counts of survivors are from the toxicity check (mostly the fifth day) where no day follows; animals may have died later. Schedule codes are those of the source, read here as Q, the interval in days (D) or hours (H), X, the number of doses. Some entries were tested several times; the values are given in rising order. Some molecules as drawn cover several salts, stereoisomers or complexes of the source; a dose is that of the sample tested. For survival time, this PubChem deposit counts one and a half times the control or more as active, and values a quarter to a half above the control carry no call in these data; other NCI protocols may use other cut-offs. Some T/C values carry the count of animals alive at the toxicity check (mostly the fifth day); where none is given, no animal had died by that day.

Turning to `CC1=CCN(C)C(C#N)C1` (stereo not drawn), the survivor count by setting is: under setting [1], 3 of 5; under setting [2], 0 of 5; under setting [3], 0 of 5.

For the molecule `CCSC(=Nc1nc2ccc([N+](=O)[O-])cc2s1)SCC`, the survivor count is 6 of 6 under setting [4], 4 of 6 under setting [5] and 0 of 6 under setting [6].

On to `CCCCCC(C[N+]1(C)CCOCC1)C(=O)/C=C/c1ccccc1` (stereo not drawn), for which the survivor count is, setting by setting: under setting [7], 3 of 6; under setting [8], 1 of 6; under setting [9], 0 of 6; under setting [10], 0 of 6.

`CN(C)c1nc2c(N)ncnc2n1C1OC(CO)C(O)C1O` (stereo not drawn): the T/C under setting [11] is 138 % of control. In addition, the survivor count is, setting by setting: under setting [9], 3 of 3; under setting [12], 0 of 3; (dose: 400.0 mg/kg/injection, schedule: Q01DX009 (ip), vehicle: saline with Tween-80) 0 of 3.

As to `Cc1cc[c]([Sb]2[O]C(CO)C(C(O)C(O)C(=O)O)[O]2)cc1` (stereo not drawn), the T/C was 103 [4 of 5 alive], 105, 109, 117 % of control under setting [1]; 108 [4 of 6 alive] and 125 % of control under setting [2]. Besides, the survivor count reads like this: under setting [2], 1 of 6 and 3 of 5; under setting [3], 0 of 5 and 0 of 6.

For `C[n+]1c(C[n+]2ccccc2)ccc2ccccc21`, the survivor count under setting [3] was 0 of 6.

On to `O=C(CCCc1ccc(N(CCCl)CCCl)cc1)OCCOc1ccccc1`, for which the survivor count reads like this: under setting [9], 1 of 6 and 6 of 6; under setting [12], 2 of 6.

Regarding `Cc1c(O)/c(=C\O)c2nc3c(=O)ccc(C(=O)NCCN(C)C)c3[nH]c2c1=O`, the T/C was 131 and 135 % of control (dose: 25.0 mg/kg/injection, schedule: Q01DX005 (ip), vehicle: other); 127 % of control (dose: 50.0 mg/kg/injection, schedule: Q01DX005 (ip), vehicle: other); 136 % of control (dose: 100.0 mg/kg/injection, schedule: Q01DX005 (ip), vehicle: other). Besides, the survivor count runs as follows: (dose: 30.0 mg/kg/injection, schedule: Q03HX015 (ip), vehicle: water) 6 of 6; (dose: 60.0 mg/kg/injection, schedule: Q03HX015 (ip), vehicle: water) 1 of 6.

Regarding `CCC1(O)CC(OC2CC(N(C)C)C(OC3CC4OC5CC(=O)C(C)OC5OC4C(C)O3)C(C)O2)c2c(cc3c(c2O)C(=O)c2c(O)ccc(O)c2C3=O)C1C(=O)OC` (stereo not drawn), the T/C is 125 % of control (dose: 0.5 mg/kg/injection, schedule: Q04DX003 (ip), vehicle: saline with Tween-80); 127 % of control (dose: 1.0 mg/kg/injection, schedule: Q04DX003 (ip), vehicle: other); 125, 127, 131, 133 % of control (dose: 1.0 mg/kg/injection, schedule: Q04DX003 (ip), vehicle: saline with Tween-80); 128 % of control (dose: 2.0 mg/kg/injection, schedule: Q04DX003 (ip), vehicle: other); 125, 130, 134 % of control (dose: 2.0 mg/kg/injection, schedule: Q04DX003 (ip), vehicle: saline with Tween-80); 127 % of control (dose: 2.0 mg/kg/injection, schedule: Q04DX003 (ip), vehicle: water). The T/C runs as follows: (dose: 3.0 mg/kg/injection, schedule: Q04DX003 (ip), vehicle: water) 133 % of control; (dose: 4.0 mg/kg/injection, schedule: Q04DX003 (ip), vehicle: other) 147 % of control; (dose: 4.0 mg/kg/injection, schedule: Q04DX003 (ip), vehicle: water) 147 % of control; (dose: 5.4 mg/kg/injection, schedule: Q04DX003 (ip), vehicle: water) 125 % of control; (dose: 9.0 mg/kg/injection, schedule: Q04DX003 (ip), vehicle: water) 147 % of control. Besides, the survivor count (dose: 4.0 mg/kg/injection, schedule: Q04DX003 (ip), vehicle: saline with Tween-80) is 5 of 6 and 6 of 6; the survivor count (dose: 8.0 mg/kg/injection, schedule: Q04DX003 (ip), vehicle: other) was 6 of 6; the survivor count (dose: 8.0 mg/kg/injection, schedule: Q04DX003 (ip), vehicle: saline with Tween-80) is 3 of 6 and 5 of 6; the survivor count (dose: 8.0 mg/kg/injection, schedule: Q04DX003 (ip), vehicle: water) is 5 of 6; the survivor count (dose: 15.0 mg/kg/injection, schedule: Q04DX003 (ip), vehicle: water) was 8 of 8.

As for `COC(=O)C1=C(C(=O)OC)C2(C)OC1c1ccccc12` (stereo not drawn), the survivor count is 0 of 6 (dose: 120.0 mg/kg/injection, schedule: Q01DX005 (ip), vehicle: saline with Tween-80) and 0 of 6 (dose: 240.0 mg/kg/injection, schedule: Q01DX005 (ip), vehicle: saline with Tween-80).

In the case of `O=C1C2C3C=CC(O3)C2C(=O)N1CCN1CCCCC1` (stereo not drawn), the survivor count (dose: 200.0 mg/kg/injection, schedule: Q01DX005 (ip), vehicle: other) is listed as 0 of 5.

As for `COc1cccc2c1C(=O)C=C(c1ccccc1)S2(=O)=O`, the survivor count (dose: 200.0 mg/kg/injection, schedule: Q01DX005 (ip), vehicle: Klucel (hydroxypropylcellulose) (HPC)) is reported as 0 of 6.

For `O=C1C[C@@H](c2ccccc2)NCCCCN(O)CCCN1`, the survivor count under setting [3] is listed as 0 of 6.

Consider `N#C/C(C(N)=O)=C(\C(=O)c1ccccc1)c1ccccc1`, for which the survivor count under setting [13] is on record as 1 of 6.

Regarding `O=[N+]([O-])c1cc([N+](=O)[O-])c2ccc(S(=O)(=O)O)cc2c1O`, the survivor count reads like this: (dose: 25.0 mg/kg/injection, schedule: Q04DX002 (ip), vehicle: saline) 6 of 6; (dose: 200.0 mg/kg/injection, schedule: Q04DX002 (ip), vehicle: saline with Tween-80) 1 of 6; (dose: 400.0 mg/kg/injection, schedule: Q01DX001 (ip), vehicle: saline with Tween-80) 3 of 6; (dose: 400.0 mg/kg/injection, schedule: Q04DX002 (ip), vehicle: saline with Tween-80) 2 of 6.

`O=[N+]([O-])[O-].OCCNCCNCC[OH2+].OCCNCCNCC[OH2+].[Cu+2]`: the survivor count by setting is: under setting [8], 0 of 6; under setting [10], 0 of 6; under setting [14], 0 of 6.

With `C=CCSc1nc2ccc(N3C(=O)C=CC3=O)cc2s1`, the survivor count is, setting by setting: under setting [4], 5 of 6; under setting [5], 0 of 6; under setting [6], 0 of 6.

On to `CSC(=S)N/N=C/c1ccc[nH]1`, for which the survivor count under setting [14] is on record as 2 of 6.

On to `CCCCCCCCCCCCCCCC[N+](C)(C)Cc1cnc[nH]1`, for which the T/C runs as follows: (dose: 3.12 mg/kg/injection, schedule: Q01DX009 (ip), vehicle: saline with Tween-80) 137 and 140 % of control; (dose: 6.25 mg/kg/injection, schedule: Q01DX009 (ip), vehicle: saline with Tween-80) 134 and 137 % of control; (dose: 12.5 mg/kg/injection, schedule: Q01DX009 (ip), vehicle: saline with Tween-80) 98 [5 of 6 alive], 123, 130 [4 of 6 alive], 138 % of control. For the same molecule, the survivor count runs as follows: (dose: 25.0 mg/kg/injection, schedule: Q01DX009 (ip), vehicle: saline with Tween-80) 2 of 6 and 4 of 6; under setting [7], 0 of 6 and 1 of 6; under setting [9], 0 of 6; under setting [12], 0 of 6.

For the molecule `CC(NNC(=S)N1CCCCCC1)c1cc2ccccc2cn1` (stereo not drawn), the T/C by setting is: under setting [11], 125 % of control; under setting [13], 141 % of control.

On to `CN(C)CCCNC(=O)NCCCCCCNC(=O)NCCCN(C)C`, for which the survivor count under setting [13] is 5 of 5.

As to `CCCCCCCCCC[N+]1(CC)CCCCCC1`, the survivor count (dose: 12.5 mg/kg/injection, schedule: Q01DX009 (ip), vehicle: saline) is given as 2 of 6; the survivor count under setting [8] is recorded as 0 of 6; the survivor count under setting [10] is reported as 0 of 6; the survivor count under setting [14] is 0 of 6.
